From patent publication US20250101107A1
These are yes or no findings as the source states them, for the method shown.

Chains of the proteins cited; added tags and fusions are not shown. Lines headed by an entry give the natural chain unless they say otherwise; changes in a name come on top.
UniProt P01732: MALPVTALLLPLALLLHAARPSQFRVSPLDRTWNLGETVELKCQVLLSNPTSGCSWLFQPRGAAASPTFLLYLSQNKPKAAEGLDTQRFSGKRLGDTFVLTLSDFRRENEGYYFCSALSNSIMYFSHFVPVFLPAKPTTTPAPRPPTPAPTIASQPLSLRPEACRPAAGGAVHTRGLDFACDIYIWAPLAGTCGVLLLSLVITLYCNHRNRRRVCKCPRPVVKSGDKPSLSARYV
UniProt P10966: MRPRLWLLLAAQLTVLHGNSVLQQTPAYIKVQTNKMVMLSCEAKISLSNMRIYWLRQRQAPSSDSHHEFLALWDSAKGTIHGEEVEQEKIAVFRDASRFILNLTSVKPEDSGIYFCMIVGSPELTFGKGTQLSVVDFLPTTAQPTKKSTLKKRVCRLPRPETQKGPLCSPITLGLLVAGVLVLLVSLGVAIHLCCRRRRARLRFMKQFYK

Columns and labels:
[1] = biological target: T1, human CD8 on human T cells (human) (UniProt P01732+P10966); assay: flow cytometry, 0.2 nM antibody on human CD8+ T cells, anti-human IgG detection (MFI AF647)
[2] = biological target: T1, human CD8 on human T cells (human); assay: flow cytometry on human CD8+ T cells, titration; titration 50 nM to 3.2 pM, human CD8+ T cells (Table 11)
[3] = biological target: T1, human CD8 on human T cells (human); assay: flow cytometry on human CD8+ T cells; single-point screen at 0.2 nM antibody, human CD8+ T cells (FIG. 24)

B1: humanized 02A01-VH5-VK4 (antibody, V domains shown)
VH: EVQLVQSGAEVKKPGATLKISCKASGYTFTDYYMHWVQQAPGKGLEWIGLVNPNNGGNIYNQNFKGRATLTVDTSTSTAYMELSSLRSEDTSVYYCGRVPLYTSHGMDYWGQGTLVTVSS
VL: EIVLTQSPATLSVSPGERATISCRASESVDSYDINSMHWYQQKPGQAPRLLIYDASNRATGIPARFSGSGSRTDFTLTISSVEPEDFATYYCQQSNEDPLTFGQGTKLEIK
- binding [1]: no binding (tested: 0.2 nM)
- binding [2]: no binding (tested: up to 50 nM)
- binding [3]: no binding (tested: 0.2 nM)
